In paper PMC11467792:
These are yes or no findings as the source states them, for the method shown. In cells and extracts the contact can be indirect. Some entries that bind do so weakly or less than the wild type. For some of these results: Tags and fused reporters may be left off the sequences shown.

By UniProt entry, the sequences of proteins in these tests, tags left out.
UniProt O15169: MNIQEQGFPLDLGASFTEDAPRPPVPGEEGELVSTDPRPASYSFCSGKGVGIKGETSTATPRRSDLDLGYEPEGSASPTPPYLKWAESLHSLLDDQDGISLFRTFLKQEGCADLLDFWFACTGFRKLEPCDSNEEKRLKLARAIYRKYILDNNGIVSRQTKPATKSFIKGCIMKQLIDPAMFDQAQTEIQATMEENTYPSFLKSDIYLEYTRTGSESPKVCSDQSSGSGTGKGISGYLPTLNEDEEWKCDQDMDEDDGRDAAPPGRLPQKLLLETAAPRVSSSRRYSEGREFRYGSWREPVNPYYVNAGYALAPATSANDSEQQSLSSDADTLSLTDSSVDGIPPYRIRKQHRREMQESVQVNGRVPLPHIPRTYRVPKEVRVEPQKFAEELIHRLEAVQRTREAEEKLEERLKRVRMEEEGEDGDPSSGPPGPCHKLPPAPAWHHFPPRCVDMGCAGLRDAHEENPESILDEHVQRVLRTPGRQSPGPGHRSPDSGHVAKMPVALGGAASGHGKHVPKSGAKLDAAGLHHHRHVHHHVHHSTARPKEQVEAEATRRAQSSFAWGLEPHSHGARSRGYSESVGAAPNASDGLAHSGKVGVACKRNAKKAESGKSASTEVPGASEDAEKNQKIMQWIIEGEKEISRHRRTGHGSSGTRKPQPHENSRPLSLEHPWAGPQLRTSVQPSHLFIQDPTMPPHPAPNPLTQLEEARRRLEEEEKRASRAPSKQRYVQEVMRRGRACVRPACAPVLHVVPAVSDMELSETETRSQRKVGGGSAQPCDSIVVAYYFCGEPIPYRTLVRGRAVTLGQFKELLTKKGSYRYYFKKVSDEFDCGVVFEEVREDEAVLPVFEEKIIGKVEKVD
UniProt P49674: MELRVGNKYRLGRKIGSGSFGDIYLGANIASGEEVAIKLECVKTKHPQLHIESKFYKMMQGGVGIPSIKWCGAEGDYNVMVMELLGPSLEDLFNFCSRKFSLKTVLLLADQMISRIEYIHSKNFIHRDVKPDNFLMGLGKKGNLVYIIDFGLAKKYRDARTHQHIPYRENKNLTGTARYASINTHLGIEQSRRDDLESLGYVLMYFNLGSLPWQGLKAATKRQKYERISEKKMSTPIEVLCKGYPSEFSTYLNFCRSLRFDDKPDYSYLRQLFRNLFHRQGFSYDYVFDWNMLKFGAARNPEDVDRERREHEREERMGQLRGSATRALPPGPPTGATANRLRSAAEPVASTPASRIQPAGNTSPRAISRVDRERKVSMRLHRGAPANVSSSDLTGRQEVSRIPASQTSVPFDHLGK

Columns and labels:
[1] = target: AXIN1 (axis inhibitor 1), endogenous (human (endogenous in HEK293T)) (UniProt O15169); assay: co-IP; endogenous proteins, HEK293T lysate (RIPA buffer); IP with anti-AXIN1 antibody or control IgG, overnight at 4 °C
[2] = target: FLAG-tagged AXIN1 (axis inhibitor 1) (UniProt O15169); assay: co-IP; HEK293T cells transfected with HA-SIAH1 and FLAG-AXIN1, with or without GFP-CK1ε; also in CSNK1E-deficient HEK293T cells, after SR3029 (100 nM, 24 h), and with λ-phosphatase; RIPA lysate, overnight at 4 °C
[3] = target: GFP-tagged CK1ε (casein kinase 1ε) (UniProt P49674); assay: co-IP; HEK293T cells co-transfected with GFP-CK1ε and HA-SIAH1; RIPA lysate, antibody-conjugated beads overnight at 4 °C; IP with FLAG-tagged beads (Fig. 5A (so in the source)) and with GFP-tagged beads (Fig. 5B)

Molecule | binding [1] | binding [2] | binding [3]
CK1ε (casein kinase 1ε), endogenous (from UniProt P49674 1-416) (enzyme) | binds |  | 
HA-tagged SIAH1 (E3 ubiquitin ligase seven in absentia homolog 1) (enzyme, UniProt Q8IUQ4 1-282) MSRQTATALPTGTSKCPPSQRVPALTGTTASNNDLASLFECPVCFDYVLPPILQCQSGHLVCSNCRPKLTCCPTCRGPLGSIRNLAMEKVANSVLFPCKYASSGCEITLPHTEKADHEELCEFRPYSCPCPGASCKWQGSLDAVMPHLMHQHKSITTLQGEDIVFLATDINLPGAVDWVMMQSCFGFHFMLVLEKQEKYDGHQQFFAIVQLIGTRKQAENFAYRLELNGHRRRLTWEATPRSIHEGIATAIMNSDCLVFDTSIAQLFAENGNLGINVTISMC |  | binds | binds
SIAH1 (E3 ubiquitin ligase seven in absentia homolog 1), endogenous (enzyme, UniProt Q8IUQ4 1-282) MSRQTATALPTGTSKCPPSQRVPALTGTTASNNDLASLFECPVCFDYVLPPILQCQSGHLVCSNCRPKLTCCPTCRGPLGSIRNLAMEKVANSVLFPCKYASSGCEITLPHTEKADHEELCEFRPYSCPCPGASCKWQGSLDAVMPHLMHQHKSITTLQGEDIVFLATDINLPGAVDWVMMQSCFGFHFMLVLEKQEKYDGHQQFFAIVQLIGTRKQAENFAYRLELNGHRRRLTWEATPRSIHEGIATAIMNSDCLVFDTSIAQLFAENGNLGINVTISMC | binds |  | 
